Assay results as given in the supplement of paper PMC12819154, “High-throughput peptide-centric local stability assay extends protein–ligand identification to membrane proteins, tissues and bacteria” (Nature Structural & Molecular Biology, 2025).
The other results are listed elsewhere or left out. Most entries show no effect beyond the scatter of the controls.

Sequences of proteins named here, by UniProt entry; tags and fusion partners are left off. A change or cut given only in a name is not applied to a line headed by its entry.
UniProt Q8WWV6: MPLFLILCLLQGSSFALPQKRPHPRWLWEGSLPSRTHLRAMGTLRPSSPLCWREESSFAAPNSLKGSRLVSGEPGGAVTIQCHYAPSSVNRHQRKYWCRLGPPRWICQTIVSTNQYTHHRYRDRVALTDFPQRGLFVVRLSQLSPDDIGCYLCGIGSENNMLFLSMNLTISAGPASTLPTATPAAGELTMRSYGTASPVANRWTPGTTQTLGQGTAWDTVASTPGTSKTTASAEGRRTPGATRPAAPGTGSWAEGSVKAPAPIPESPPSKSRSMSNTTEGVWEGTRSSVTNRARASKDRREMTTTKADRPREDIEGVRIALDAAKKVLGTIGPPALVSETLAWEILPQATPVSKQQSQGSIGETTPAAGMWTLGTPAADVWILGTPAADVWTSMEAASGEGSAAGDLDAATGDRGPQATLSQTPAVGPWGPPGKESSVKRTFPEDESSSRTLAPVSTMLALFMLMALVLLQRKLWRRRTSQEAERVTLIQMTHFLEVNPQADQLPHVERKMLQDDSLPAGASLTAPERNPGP
UniProt Q8TF40: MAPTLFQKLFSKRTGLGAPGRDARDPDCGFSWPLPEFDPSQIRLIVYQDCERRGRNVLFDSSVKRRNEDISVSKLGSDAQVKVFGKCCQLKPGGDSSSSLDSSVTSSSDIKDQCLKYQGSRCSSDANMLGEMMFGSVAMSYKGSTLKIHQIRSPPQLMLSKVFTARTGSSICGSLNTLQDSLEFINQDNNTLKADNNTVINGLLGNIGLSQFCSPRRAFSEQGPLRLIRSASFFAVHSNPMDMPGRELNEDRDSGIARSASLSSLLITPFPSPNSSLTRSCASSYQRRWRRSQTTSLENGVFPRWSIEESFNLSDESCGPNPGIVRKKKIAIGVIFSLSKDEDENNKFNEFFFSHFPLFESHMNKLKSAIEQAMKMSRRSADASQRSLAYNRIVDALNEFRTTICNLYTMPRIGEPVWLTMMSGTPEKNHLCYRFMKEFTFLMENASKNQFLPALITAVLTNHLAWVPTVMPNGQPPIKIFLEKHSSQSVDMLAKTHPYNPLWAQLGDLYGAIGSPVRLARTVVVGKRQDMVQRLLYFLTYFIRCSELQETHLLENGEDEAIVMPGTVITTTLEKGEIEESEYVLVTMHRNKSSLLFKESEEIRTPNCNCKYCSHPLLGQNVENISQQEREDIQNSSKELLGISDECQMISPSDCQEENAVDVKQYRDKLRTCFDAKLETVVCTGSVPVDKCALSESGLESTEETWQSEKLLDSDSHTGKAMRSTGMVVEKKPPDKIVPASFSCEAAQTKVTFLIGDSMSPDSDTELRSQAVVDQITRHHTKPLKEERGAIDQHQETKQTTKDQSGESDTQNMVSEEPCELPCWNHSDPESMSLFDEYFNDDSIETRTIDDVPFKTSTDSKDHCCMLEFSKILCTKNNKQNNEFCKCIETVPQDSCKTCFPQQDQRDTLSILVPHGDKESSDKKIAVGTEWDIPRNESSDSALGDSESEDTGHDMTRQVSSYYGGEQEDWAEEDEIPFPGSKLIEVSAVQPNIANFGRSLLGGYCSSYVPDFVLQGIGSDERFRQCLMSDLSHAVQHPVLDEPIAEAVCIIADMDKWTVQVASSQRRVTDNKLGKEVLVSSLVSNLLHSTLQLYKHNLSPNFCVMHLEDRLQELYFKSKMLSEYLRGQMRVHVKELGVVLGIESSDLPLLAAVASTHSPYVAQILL
UniProt Q92562: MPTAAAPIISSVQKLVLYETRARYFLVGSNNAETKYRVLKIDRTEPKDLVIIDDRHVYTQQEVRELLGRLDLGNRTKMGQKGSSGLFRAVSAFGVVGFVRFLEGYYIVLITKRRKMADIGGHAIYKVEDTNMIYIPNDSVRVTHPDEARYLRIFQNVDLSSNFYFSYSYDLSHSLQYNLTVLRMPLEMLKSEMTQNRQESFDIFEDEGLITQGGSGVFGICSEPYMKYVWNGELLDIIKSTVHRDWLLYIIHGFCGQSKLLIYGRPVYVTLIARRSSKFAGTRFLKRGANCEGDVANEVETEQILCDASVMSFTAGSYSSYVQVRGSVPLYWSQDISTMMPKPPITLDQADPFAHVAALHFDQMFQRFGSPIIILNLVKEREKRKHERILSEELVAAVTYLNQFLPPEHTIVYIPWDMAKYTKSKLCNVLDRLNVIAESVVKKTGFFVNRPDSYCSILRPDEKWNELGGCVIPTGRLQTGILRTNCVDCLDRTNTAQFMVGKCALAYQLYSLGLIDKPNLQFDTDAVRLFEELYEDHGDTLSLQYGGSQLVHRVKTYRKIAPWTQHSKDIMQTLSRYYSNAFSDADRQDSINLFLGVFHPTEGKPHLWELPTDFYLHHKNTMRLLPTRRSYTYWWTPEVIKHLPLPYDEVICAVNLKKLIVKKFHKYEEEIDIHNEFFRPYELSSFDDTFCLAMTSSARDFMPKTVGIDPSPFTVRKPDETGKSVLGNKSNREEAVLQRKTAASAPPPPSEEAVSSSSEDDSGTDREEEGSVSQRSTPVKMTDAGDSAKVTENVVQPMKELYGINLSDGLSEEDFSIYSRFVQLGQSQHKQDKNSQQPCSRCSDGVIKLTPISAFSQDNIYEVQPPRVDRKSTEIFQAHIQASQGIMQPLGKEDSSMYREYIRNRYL
UniProt Q8WUQ7: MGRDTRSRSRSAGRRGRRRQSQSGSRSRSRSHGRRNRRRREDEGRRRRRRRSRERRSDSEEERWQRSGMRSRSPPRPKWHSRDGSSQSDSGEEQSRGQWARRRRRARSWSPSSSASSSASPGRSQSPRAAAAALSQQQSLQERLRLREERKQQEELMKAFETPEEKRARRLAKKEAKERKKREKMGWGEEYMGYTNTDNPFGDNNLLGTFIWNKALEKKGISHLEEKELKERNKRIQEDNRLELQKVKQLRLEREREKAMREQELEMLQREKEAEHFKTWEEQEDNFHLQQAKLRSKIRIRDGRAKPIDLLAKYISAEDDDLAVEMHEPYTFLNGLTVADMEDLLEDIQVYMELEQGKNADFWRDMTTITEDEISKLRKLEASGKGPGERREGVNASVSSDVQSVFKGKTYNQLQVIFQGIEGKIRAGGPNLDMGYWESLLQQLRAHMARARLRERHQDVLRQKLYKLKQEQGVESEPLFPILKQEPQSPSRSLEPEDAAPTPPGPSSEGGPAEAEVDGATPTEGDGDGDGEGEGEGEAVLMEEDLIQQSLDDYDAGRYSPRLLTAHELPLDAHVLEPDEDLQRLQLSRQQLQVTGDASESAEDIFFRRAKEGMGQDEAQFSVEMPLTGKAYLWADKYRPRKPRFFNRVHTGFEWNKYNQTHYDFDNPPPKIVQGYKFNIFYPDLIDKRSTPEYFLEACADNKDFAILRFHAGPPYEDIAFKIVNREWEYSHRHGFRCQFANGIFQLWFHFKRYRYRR
UniProt Q92698: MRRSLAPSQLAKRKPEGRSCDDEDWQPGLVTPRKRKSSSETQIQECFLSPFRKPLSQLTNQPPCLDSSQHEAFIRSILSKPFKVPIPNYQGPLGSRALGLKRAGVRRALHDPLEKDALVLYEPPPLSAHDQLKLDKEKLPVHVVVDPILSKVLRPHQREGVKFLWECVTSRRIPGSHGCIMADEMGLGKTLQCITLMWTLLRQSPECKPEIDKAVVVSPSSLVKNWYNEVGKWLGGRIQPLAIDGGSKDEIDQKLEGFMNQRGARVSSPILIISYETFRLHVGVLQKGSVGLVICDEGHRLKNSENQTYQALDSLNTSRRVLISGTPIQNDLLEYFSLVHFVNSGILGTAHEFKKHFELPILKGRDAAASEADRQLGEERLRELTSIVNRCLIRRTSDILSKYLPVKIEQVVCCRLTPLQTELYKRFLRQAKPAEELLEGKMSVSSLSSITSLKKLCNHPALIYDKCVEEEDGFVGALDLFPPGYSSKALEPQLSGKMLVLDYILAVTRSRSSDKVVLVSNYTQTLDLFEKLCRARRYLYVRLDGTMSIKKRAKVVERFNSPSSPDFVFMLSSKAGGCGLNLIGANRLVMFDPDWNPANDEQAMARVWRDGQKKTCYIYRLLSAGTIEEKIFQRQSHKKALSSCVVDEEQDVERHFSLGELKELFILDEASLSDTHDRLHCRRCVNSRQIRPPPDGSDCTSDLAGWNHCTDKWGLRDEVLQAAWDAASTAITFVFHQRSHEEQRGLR
UniProt Q8TD16, whole entry: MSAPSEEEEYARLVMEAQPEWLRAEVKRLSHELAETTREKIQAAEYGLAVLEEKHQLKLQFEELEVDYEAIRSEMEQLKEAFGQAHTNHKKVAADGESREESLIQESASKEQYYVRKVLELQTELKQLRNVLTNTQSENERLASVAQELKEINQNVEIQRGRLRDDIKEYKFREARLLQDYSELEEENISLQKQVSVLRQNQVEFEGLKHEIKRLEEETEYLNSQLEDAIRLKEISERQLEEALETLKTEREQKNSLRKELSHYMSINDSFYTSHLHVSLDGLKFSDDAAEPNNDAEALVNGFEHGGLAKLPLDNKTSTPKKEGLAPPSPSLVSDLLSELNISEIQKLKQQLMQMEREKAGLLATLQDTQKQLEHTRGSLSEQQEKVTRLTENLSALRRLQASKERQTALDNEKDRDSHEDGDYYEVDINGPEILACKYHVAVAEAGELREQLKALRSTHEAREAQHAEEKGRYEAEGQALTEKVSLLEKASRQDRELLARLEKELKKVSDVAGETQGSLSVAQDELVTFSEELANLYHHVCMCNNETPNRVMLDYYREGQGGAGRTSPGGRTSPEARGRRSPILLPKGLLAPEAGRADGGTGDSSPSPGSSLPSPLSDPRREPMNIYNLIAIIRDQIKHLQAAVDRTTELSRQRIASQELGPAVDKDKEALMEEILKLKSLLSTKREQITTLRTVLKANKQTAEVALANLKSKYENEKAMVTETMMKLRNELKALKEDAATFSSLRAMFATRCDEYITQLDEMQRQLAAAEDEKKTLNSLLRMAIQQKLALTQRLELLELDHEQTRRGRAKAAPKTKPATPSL
UniProt Q92546: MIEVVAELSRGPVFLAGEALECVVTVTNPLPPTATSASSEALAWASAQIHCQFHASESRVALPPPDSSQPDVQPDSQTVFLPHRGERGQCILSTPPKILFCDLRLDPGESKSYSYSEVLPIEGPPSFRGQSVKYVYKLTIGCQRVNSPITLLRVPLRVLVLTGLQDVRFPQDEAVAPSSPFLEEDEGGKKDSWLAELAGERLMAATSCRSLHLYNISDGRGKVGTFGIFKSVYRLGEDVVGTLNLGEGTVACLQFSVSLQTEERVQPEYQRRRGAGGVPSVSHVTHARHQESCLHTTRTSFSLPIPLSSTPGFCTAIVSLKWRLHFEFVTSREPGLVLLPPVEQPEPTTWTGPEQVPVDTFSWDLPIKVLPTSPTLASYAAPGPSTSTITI
UniProt Q8TCG2: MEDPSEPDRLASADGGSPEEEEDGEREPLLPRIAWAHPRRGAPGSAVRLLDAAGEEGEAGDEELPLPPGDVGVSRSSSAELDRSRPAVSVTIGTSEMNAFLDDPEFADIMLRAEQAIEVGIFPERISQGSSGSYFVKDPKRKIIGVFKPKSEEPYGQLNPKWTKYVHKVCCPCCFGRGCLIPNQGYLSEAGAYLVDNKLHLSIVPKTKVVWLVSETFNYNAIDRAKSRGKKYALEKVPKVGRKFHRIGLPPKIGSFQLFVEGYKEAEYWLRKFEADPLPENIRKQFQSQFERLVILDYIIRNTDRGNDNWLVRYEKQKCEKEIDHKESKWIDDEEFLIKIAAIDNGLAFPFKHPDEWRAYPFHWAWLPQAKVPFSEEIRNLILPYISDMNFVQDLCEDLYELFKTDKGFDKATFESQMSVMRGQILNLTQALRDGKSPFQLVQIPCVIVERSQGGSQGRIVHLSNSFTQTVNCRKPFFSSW

compound: CN[C@@H]1C[C@H]2O[C@@](C)([C@@H]1OC)n1c3ccccc3c3c4c(c5c6ccccc6n2c5c31)C(=O)NC4 [staurosporine]; experiment: log2 fold change of tryptic peptide abundance, ligand vs vehicle (limited proteolysis) (log2 ratio); higher = more trypsin-susceptible (destabilized); settings: ligand concentration: 20 uM; sample: K562 cleared lysate; digestion: 4 min, 22 C (HT-PELSA RT4min, Orbitrap Astral)

Target | log2 fold change
PHF3 (peptide sequence: MAPPVDDLSPK, peptide start residue: 1125) (UniProt Q92576) | 0.186
UniProt Q8WWV6 (peptide sequence: PAAPGTGSWAEGSVKAPAPIPESPPSK, peptide start residue: 244) | 0.128
FNIP1 (peptide sequence: TSTDSKDHCCMLEFSK, peptide start residue: 856) (UniProt Q8TF40) | 0.415
FIG4 (peptide sequence: FVQLGQSQHKQDK, peptide start residue: 821) (UniProt Q92562) | 0.305
UniProt Q8WUQ7 (peptide sequence: KQQEELMK, peptide start residue: 151) | 0.419
RAD54L (peptide sequence: SLAPSQLAK, peptide start residue: 4) (UniProt Q92698) | 0.19
BICD2 (peptide sequence: REPMNIYNLIAIIRDQIK, peptide start residue: 622) (UniProt Q8TD16) | 0.37
SYNE2 (peptide sequence: VSRFHRR, peptide start residue: 6340) (UniProt Q8WXH0) | 0.0458
RGP1 (peptide sequence: VNSPITLLRVPLR, peptide start residue: 145) (UniProt Q92546) | -0.296
PI4K2B (peptide sequence: VPFSEEIR, peptide start residue: 372) (UniProt Q8TCG2) | -0.418

Look-ups from above.
Entry for UniProt Q8WUQ7 (peptide sequence: KQQEELMK, peptide start residue: 151) under log2 fold change: 0.419
Entry for RAD54L (peptide sequence: SLAPSQLAK, peptide start residue: 4) (UniProt Q92698) under log2 fold change: 0.19
